Test results: paper doi:10.1101/2022.01.04.474868
No constants are given. Whether binding was seen depends on the method and setting. In cells and extracts the contact can be indirect. Some entries that bind do so weakly or less than the wild type. For some assays here: Tags and fused reporters may be left off the sequences shown.

Protein sequences, listed by entry. Tags and fused reporters are not part of them.
UniProt P40763: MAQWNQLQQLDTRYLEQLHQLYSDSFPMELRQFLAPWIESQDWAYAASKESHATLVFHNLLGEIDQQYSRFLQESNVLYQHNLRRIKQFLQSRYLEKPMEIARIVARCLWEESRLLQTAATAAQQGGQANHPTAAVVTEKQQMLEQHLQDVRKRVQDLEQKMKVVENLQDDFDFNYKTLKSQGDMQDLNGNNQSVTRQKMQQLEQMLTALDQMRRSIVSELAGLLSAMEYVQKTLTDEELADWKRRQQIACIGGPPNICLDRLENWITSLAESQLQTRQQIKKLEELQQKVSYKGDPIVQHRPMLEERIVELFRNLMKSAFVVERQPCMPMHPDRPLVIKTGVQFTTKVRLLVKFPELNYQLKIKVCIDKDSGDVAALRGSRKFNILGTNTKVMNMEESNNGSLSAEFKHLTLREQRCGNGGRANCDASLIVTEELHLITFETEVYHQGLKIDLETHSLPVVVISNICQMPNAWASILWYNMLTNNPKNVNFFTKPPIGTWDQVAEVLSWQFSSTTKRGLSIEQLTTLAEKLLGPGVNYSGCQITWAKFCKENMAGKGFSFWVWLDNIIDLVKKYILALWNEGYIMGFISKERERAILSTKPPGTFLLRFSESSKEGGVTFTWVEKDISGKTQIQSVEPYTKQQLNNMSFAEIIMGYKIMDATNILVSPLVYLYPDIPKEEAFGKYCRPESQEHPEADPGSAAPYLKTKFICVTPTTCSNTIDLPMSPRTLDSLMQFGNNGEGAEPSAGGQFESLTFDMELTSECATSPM

Legend:
[1] = target: T1, endogenous HMGN5 (human (endogenous in MDA-MB-231)) (UniProt P82970); assay: co-IP
T1 sequence: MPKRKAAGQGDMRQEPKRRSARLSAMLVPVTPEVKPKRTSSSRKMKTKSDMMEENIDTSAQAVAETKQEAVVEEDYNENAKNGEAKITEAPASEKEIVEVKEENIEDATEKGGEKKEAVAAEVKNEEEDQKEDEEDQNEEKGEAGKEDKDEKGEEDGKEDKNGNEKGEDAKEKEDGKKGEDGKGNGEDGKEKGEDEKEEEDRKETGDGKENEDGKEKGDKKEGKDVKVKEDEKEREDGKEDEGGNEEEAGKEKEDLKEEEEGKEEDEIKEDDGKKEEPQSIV

FLAG-HMGN5 = target: T2, FLAG-HMGN5 (UniProt P82970); assay: co-IP
T2 sequence: T1 sequence

binding [1]	binding (FLAG-HMGN5)	Substance
binds	–	endogenous STAT3 (from UniProt P40763 1-770)
–	binds	STAT3 (from UniProt P40763 1-770)
